The results in this text go back to patent EP0552417B1 (priority 1991, dated 1993).

Non-standard residues stand in square brackets, D forms with d. *: point of attachment. Hyp = O=C(O)[C@@H]1C[C@@H](O)CN1; dPhg = N[C@@H](C(=O)O)c1ccccc1; dTle = CC(C)(C)[C@@H](N)C(=O)O; Bn = c1ccc(C*)cc1; For = O=C*

One data set can be described thus: general procedure: solution-phase peptide synthesis; DCC/HONB (ONB active esters). Particulars: coupling step.
cyclo([dD]WD[dL]L[dW](For)) showed a step yield of 91.1%.

Still in this data set, the particulars now being: cyclisation step.
cyclo([dD]GA[dL]L[dW]) showed a cyclisation yield of 19.2%.

The substance cyclo([dD]PD[dL]L[dW]) showed a cyclisation yield of 47.4%. cyclo([dD]WD[dL]L[dW]) had a cyclisation yield of 52.9%.

The substance cyclo([dD]WD[dTle]L[dW]) came in with a cyclisation yield of 42.8%. Same read-out and setting: with “cyclo[-D-Asp(OBzl)-Asn(NHCH2CH2Ind)-Asp(OBzl)-D-Thg(2)-Leu-D-Trp-]” the figure was 90.4%; with “cyclo[-D-Asp-Asn(CH2CH2-Ind)-Asp-D-Leu-Leu-D-Trp-]”, 19.4%.

“cyclo[-D-Asp-Asn(CH2CH2-Ind)-Asp-D-Thg(2)-Leu-D-Trp-]” registered a cyclisation yield of 9.5%. Still for that read-out and setting: with “cyclo[-D-Asp-Asn(CH2CH2Ph)-Asp-D-Leu-Leu-D-Trp-]” the figure was 24.1%. The substance “cyclo[-D-Asp-Asn(CH2Ph)-Asp-D-Leu-Leu-D-Trp-]” had a cyclisation yield of 23.8%. The same measure, in the same setting: the same measure for “cyclo[-D-Asp-Gln(Bzl)-Asp-D-Thg(2)-Leu-D-Trp-]”: 8.8%; for “cyclo[-D-Asp-Hyp(Bzl)-Asp-D-Thg(2)-Leu-D-Trp-]”: 5.7%; for “cyclo[-D-Asp-Orn(COCH2-Ind)-Asp-D-Leu-Leu-D-Trp-]”: 12.5%.

In turn, “cyclo[-D-Asp-Orn(COCH2CH2Ph)-Asp-D-Leu-Leu-D-Trp-]” returned a cyclisation yield of 40.9%.

The substance “cyclo[-D-Asp-Orn(COCH2Ph)-Asp-D-Leu-Leu-D-Trp-]” registered a cyclisation yield of 2.9%. On to “cyclo[-D-Asp-Orn(COPh)-Asp-D-Leu-Leu-D-Trp-]”, for which the cyclisation yield was 48.1%. Still for that read-out and setting: the same measure for “cyclo[-D-Asp-Trp-Asp-D-Thg(2)-Leu-D-Trp-]”: 4.6%; for “cyclo[-D-Asp-Trp-Asp-D-γMeLeu-Leu-D-Trp-]”: 51.5%.

The data set is the same for the next values; noted with them: late stage modification step.
cyclo([dD]WD[dPhg]L[dW]): the step yield was 93.0%. The same measure, in the same setting: with cyclo([dD][Hyp](Bn)D[dL]L[dW]) the figure was 82.6%.

The data set is the same for the next values; noted with them: purification step.
In turn, cyclo([dD][Hyp](Bn)D[dL]L[dW]) yielded a step yield of 79.0%.
